The record followed here is publication PMC11723901.

The chains behind the UniProt entries cited, without tags or fusion partners. Where a name states a change or a piece, a line headed by the entry shows the natural chain unless it says otherwise.
UniProt A0A1P8BFE0: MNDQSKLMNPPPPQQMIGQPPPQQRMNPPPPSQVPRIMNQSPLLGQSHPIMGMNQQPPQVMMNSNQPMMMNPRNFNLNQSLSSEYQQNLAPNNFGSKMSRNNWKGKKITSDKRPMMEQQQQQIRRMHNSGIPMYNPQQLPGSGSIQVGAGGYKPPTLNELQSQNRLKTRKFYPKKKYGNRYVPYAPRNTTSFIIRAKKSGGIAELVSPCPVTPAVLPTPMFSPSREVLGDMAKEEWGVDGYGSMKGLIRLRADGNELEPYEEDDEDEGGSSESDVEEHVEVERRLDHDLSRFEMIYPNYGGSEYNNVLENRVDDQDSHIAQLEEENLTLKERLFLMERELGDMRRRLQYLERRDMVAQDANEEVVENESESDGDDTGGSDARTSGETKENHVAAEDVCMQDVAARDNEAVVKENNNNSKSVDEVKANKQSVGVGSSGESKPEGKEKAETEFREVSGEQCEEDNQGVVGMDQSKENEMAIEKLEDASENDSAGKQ

No constants are given. Whether binding was seen depends on the method and setting. In cells and extracts the contact can be indirect. These calls come from enrichment with a bait or labelling near it, and not all partners need be listed.

The assay addresses …OOF 2 fused to GFP (SHP2-GFP) (Arabidopsis) (UniProt P29385). In words: affinity purification with mass spectrometry; GFP-trap magnetic beads (ChromoTek) on total protein from 1 g inflorescence of pSHP2:SHP2-GFP plants, with Col-0 wild type as control; lysis buffer 50 mM Tris/HCl pH 7.5, 150 mM NaCl, 10 mM MgCl2, 10% glycerol, 1 mM EDTA, 2 mM DTT, 1% Triton X-100, NP40; LC-MS/MS (DIA); three biological replicates.
On to “AT5G19900 protein (PRLI-interacting factor) (from UniProt A0A1P8BFE0)”, for which the binding result is reported as “binds”.
As to “…OOF 1 (SHP1) (from UniProt P29381 1-248)”, the binding entry is listed as “binds”.
To “MADS-box protein AGL11 (Protein …) (from UniProt Q38836 1-230)” belongs “binds”.
As for “… 3 (Agamous-like MADS-box protein AGL9) (from UniProt O22456 1-251)”, the entry is “binds”.
As for “MADS-box protein SHORT … PHASE (from UniProt Q9FVC1 1-240)”, the entry is “binds”.
